Reference: paper PMC10879859
Results are given in words; binding and its absence hold for the method and conditions named. In cells and extracts the contact can be indirect. A result given as binding can be weak or reduced; the word gives no strength.

Target: T1, choline-ethanolamine phosphotransferase 1 (CEPT1) (human (endogenous in 293T)) (UniProt Q9Y6K0)
T1 sequence: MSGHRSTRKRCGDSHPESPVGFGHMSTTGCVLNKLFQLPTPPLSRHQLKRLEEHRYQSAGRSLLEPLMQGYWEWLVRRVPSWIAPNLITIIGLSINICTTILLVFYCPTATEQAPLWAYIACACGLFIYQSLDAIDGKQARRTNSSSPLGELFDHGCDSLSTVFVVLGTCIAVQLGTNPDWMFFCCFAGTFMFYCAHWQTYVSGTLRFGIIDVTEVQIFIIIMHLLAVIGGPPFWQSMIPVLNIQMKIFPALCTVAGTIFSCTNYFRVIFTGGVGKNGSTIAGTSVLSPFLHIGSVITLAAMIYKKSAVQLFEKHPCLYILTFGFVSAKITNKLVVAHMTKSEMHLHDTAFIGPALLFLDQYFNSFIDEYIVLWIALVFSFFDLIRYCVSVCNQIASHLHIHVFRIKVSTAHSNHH
Test: co-IP; co-IP of CEPT1 with immunoblot for CCTα and CK, with or without 1 mM Ca^2+; CEPT1-ablated cells as control

binding: binds
Substance: choline kinase (CK) (human (endogenous in 293T)) (enzyme)
